Reference: the supplement of paper PMC12889115
The list shows a part of the results. These are raw signals, not scaled to a control.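 First-pass screen: polymyxin B was added at a level that permeabilizes the Salmonella outer membrane while sparing the inner membrane. DMSO wells, with and without polymyxin B, defined maximum growth. Because plates differed from one another, each plate's data were ranked separately and the compounds with the lowest OD600 were carried forward as hits.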

System: Salmonella enterica serovar Typhimurium SL1344
Assay: bacterial growth OD600 after 18 h with compound and polymyxin B; higher = more bacterial growth (less inhibition)
Conditions: 50 µM, Mueller-Hinton broth

SMILES	bacterial growth OD600 (polymyxin B 0.75 µg/mL)	bacterial growth OD600 (polymyxin B 1 µg/mL)
COCCC(=O)Nc1cc(C(=O)N2CCCCC2c2cccnc2)cc2nc(-c3ccccc3)n(C)c12 (stereo not given)	0.803	
CC(C)N(Cc1nccn1C)C(=O)Cn1nnnc1CN1C[C@@H](C)O[C@@H](C)C1	0.837	
CCCCN(C)C(=O)c1nc2ccccn2c1CNCc1c(OC)ccc2ccccc12		0.004
Cc1ccc(C)c(-n2cc(CN3CCCC(C(N)=O)C3)c(-c3ccccc3)n2)c1 (stereo not given)		0.731
COCCN1C(=O)CC(CC(=O)N(C)CCC23CC4CC(CC(C4)C2)C3)(c2ccccc2OC)C1=O (stereo not given)	0.004	
Cc1cc(C(=O)NC2CC(=O)N(Cc3ccccc3C(F)(F)F)C2)nn1C (stereo not given)		0.774
Cc1c[nH]c(C(=O)N2CCC3(CCCN(Cc4ccc(F)c(F)c4)C3=O)C2)n1 (stereo not given)		0.911
CSCCC(=O)N1CCC(C2CCN(Cc3cccc(F)c3F)CC2)C1 (stereo not given)	0.853	
CC1(C)C(=O)NCCN1Cc1cn(-c2ccccc2)nc1-c1ccc2c(c1)OCO2		0.845
CCc1ocnc1C(=O)NC1CC(=O)N(Cc2cccc3ccccc23)C1 (stereo not given)		1.08
Cc1ccc(CN2CCN(Cc3ccc(F)cc3F)CC2CCO)o1 (stereo not given)		0.904
COCc1noc(-c2ccc(NC[C@H]3CCc4ccccc4O3)nc2)n1		0.767
CC(C)CS(=O)(=O)c1ncc(CN(C)CC2CCOCC2)n1Cc1ccccc1		0.633
COCC(=O)NC1CC(=O)N(Cc2ccccc2C(F)(F)F)C1 (stereo not given)		0.865
O=C(/C=C/c1cccnc1)N1CCC2(CCCN(CCc3ccccc3)C2)C1 (stereo not given)	0.789	
COC(=O)CCC(=O)N1CCCC(C(=O)c2ccc3cc(OC)ccc3c2)C1 (stereo not given)		0.788
CSc1ccc(CC2(CCC(=O)NC(C)c3cccs3)CCC(=O)N2)cc1 (stereo not given)	0.782	
CN(C)c1ncc(CN2CCC(Oc3ccccc3C(=O)N3CCCCC3)CC2)s1		1.21
CC(C)Nc1ccc(C(=O)N2CCCN(C3CCCCC3)CC2)cn1	0.885	
Cc1ccc(-c2cccc(CN3CCC(N4CCC(C(=O)NC(C)C)CC4)CC3)c2)o1		0.964

Record cards, as listed above.
Cc1c[nH]c(C(=O)N2CCC3(CCCN(Cc4ccc(F)c(F)c4)C3=O)C2)n1 (stereo not given) as listed: bacterial growth OD600 (polymyxin B 1 µg/mL): 0.911
CC(C)N(Cc1nccn1C)C(=O)Cn1nnnc1CN1C[C@@H](C)O[C@@H](C)C1 as listed: bacterial growth OD600 (polymyxin B 0.75 µg/mL): 0.837
